Measured values from PMC2323224.
These are yes or no findings as the source states them, for the method shown. Some results given as binding are weak or reduced against the parent protein; the word gives no strength.

By UniProt entry, the sequences of proteins in these tests, tags left out.
UniProt Q0PBP3: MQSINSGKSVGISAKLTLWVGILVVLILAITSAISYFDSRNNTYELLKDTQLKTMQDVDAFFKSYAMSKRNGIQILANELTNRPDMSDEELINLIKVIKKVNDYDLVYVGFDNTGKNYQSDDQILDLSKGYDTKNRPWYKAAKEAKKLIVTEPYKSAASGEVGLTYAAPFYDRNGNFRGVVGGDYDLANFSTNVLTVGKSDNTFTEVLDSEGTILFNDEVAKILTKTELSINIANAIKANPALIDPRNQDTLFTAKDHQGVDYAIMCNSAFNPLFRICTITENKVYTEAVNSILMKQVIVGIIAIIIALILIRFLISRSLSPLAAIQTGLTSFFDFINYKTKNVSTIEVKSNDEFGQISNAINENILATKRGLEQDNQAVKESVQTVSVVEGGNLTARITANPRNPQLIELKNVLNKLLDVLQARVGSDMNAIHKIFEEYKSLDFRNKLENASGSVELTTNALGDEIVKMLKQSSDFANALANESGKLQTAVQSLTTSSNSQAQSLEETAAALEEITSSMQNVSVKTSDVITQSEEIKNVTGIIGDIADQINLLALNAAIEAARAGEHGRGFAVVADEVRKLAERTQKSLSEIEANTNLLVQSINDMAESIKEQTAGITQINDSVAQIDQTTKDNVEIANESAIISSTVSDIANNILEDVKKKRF
UniProt Q0P9E4: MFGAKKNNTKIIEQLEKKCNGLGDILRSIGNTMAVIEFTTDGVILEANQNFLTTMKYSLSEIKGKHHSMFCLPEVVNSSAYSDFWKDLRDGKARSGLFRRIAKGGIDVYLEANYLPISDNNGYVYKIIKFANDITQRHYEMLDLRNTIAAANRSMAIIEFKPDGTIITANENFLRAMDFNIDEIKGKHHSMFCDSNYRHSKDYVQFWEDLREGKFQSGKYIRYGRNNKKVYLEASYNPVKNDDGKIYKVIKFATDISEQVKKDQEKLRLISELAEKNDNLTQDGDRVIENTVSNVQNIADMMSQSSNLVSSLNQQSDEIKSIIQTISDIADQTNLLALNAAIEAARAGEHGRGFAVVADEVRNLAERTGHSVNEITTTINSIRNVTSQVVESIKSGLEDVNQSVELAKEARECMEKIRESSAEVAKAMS
UniProt P0C635: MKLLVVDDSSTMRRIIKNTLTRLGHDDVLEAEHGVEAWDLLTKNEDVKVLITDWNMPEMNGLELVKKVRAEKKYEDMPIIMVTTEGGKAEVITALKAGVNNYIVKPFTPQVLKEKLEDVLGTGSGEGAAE

B1: CheV (protein, UniProt Q0PBM1 1-318)
chain: MFDENIVKTGSNEMELVDFRIFKQGHDKVYEGIYGVNVSKVREIIKIPSLTELPGVPDYIEGIFDLRGVVIPVVNLAKWMQITEPESTMLKPRVIITEFSNILIGFIVHEAKRIRRINWKDIEPATFSTGSGALDKGKITGVTRIENDEVLLILDLESVVEDLGIYAPKTDIDFGKIEKFTGTALILDDSMTARKRVKEMMQQMGFQVVEAKDGVEGINKLEELSQIYGESLNDTLKIIVSDVEMPQMDGFHFAARIKEDPRFKDIPIVFNSSLSNEFMNEKGVQEAGGEGYLVKFNASDFFNEIAKVIKKHQSQEQG
B2: CheA (protein, UniProt Q0PBM2 1-769)
chain: MEDMQEILEDFLVEAFELVEQIDHDLVELESNPEDLELLNRIFRVAHTVKGSSSFLNFDVLTKLTHHMEDVLNKARHGELKITPDIMDVVLESIDRMKTLLNSIRDNGNDTAIGMDIEPICARLTAISEGESPVVATDSNEKSIPQAELEAPKQEIATPEPEVDVNQLSDSEVEAEIERLLKVRKAEDQARRAQKKQTTNAAPKPTNNTANKPTESGEKKVPASGSNASSMDQTIRVEVKRLDHLMNLIGELVLGKNRLLKIYDDVEERYEGEKFLEELNQVVSQLSIIITDVQLAVMKTRMQPIAKVFNKFPRVVRDLSRELGKQIELEITGEETELDKSIVEEIGDPIMHMIRNSCDHGVEDPATRAANGKPEKGIVQLKAYNEGNHIVVEITDDGKGLDPNGLKAKAIEKNLITEREADQMTDKEAFALIFKPGFSTAAKVTNVSGRGVGMDVVKTNIEKLNGVIEIDSELGKGSSFKLKIPLTLAIIQSLLVGTQEEFYAIPLASVLETVRVPIDDIYTIEGKNVLRLRDEVLSLVRLSDVFGVKQVLESGDQTYVVVIGVAESKLGIIVDTLVGQEEIVIKSMGDYLQNIQGIAGATIRGDGRVTLIIDVGAMMDMAKEIKVDIKAQLESSAKKPKEQPSDYKVLIVDDSKMDRTLMQKALEPLGVSLIEATNGVEALNIIKSGEHDIDAMLIDIEMPRMDGYTLAGEIRKYSKYRNLPLIAVTSRTSKTDRLRGVEVGMTEYITKPYSPEYLENVVRKNLKLG

How the values were obtained:
Assay in all cases: two-hybrid; LexA-based yeast two-hybrid; full length ORFs as LexA BD fusions (MAL62 promoter, strain Y309) mated with AD fusions (GAL1 promoter, strain RFY231); two-phase pooled matrix screen plus a library screen of 94 BD strains; LEU2 and lacZ reporters, background-corrected combined score >= 1; positives retested in one-on-one matings
[1] = target: Cj0262c (C. jejuni NCTC11168) (UniProt Q0PBP3)
[2] = target: Cj1110c (C. jejuni NCTC11168) (UniProt Q0P9E4)
[3] = target: Cj0448c (C. jejuni NCTC11168) (UniProt Q0PB65)
[4] = target: CheY (C. jejuni NCTC11168) (UniProt P0C635)

Binder | binding [1] | binding [2] | binding [3] | binding [4]
B1 | binds | binds | binds | –
B2 | – | – | – | binds
